The assay addresses KDM6A N1156T (UniProt O15550). As to the kind of experiment: co-IP; Kyse150 cells co-transfected with the plasmid of SND1 and KDM6A mutants identified in ESCC patients; western blot with specific antibodies. (In general: A western blot detects proteins with antibodies after separation by electrophoresis.)

Chains of the proteins cited; added tags and fusions are not shown. Lines headed by an entry give the natural chain unless they say otherwise; changes in a name come on top.
UniProt O15550: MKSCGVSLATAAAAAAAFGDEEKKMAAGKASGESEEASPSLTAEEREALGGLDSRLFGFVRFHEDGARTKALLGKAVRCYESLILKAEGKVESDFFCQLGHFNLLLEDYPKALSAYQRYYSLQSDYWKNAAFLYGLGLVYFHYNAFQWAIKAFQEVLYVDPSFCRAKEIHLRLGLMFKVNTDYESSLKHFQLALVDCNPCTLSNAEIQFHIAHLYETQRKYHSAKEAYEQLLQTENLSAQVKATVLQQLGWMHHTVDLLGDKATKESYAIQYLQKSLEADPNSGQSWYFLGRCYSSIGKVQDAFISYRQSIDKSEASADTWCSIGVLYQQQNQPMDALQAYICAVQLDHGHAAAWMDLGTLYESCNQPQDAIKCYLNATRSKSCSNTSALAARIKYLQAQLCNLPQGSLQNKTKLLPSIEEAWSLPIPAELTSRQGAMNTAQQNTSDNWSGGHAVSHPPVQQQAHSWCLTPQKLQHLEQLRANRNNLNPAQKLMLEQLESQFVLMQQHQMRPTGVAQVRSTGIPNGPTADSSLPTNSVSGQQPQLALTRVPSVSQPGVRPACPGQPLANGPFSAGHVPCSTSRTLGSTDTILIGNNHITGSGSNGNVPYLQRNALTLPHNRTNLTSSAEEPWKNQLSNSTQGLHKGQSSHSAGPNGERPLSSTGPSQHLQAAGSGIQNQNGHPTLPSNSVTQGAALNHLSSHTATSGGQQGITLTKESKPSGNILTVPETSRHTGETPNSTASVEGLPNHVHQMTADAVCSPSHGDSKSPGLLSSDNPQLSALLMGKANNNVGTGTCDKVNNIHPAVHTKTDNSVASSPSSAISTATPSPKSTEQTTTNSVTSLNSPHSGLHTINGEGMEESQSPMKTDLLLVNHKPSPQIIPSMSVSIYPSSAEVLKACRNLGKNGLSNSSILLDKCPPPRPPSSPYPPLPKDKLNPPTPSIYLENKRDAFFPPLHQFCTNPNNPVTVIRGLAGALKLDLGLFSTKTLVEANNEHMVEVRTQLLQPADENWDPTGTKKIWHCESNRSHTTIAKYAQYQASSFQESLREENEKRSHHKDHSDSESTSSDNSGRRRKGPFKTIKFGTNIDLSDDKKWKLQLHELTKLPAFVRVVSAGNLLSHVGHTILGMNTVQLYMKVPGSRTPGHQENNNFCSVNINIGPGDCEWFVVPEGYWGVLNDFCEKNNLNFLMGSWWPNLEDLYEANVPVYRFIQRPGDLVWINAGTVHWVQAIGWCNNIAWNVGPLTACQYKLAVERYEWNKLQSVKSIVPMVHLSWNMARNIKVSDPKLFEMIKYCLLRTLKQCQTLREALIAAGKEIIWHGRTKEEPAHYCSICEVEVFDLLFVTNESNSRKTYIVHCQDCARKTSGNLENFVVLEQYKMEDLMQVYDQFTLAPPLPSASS
UniProt Q7KZF4: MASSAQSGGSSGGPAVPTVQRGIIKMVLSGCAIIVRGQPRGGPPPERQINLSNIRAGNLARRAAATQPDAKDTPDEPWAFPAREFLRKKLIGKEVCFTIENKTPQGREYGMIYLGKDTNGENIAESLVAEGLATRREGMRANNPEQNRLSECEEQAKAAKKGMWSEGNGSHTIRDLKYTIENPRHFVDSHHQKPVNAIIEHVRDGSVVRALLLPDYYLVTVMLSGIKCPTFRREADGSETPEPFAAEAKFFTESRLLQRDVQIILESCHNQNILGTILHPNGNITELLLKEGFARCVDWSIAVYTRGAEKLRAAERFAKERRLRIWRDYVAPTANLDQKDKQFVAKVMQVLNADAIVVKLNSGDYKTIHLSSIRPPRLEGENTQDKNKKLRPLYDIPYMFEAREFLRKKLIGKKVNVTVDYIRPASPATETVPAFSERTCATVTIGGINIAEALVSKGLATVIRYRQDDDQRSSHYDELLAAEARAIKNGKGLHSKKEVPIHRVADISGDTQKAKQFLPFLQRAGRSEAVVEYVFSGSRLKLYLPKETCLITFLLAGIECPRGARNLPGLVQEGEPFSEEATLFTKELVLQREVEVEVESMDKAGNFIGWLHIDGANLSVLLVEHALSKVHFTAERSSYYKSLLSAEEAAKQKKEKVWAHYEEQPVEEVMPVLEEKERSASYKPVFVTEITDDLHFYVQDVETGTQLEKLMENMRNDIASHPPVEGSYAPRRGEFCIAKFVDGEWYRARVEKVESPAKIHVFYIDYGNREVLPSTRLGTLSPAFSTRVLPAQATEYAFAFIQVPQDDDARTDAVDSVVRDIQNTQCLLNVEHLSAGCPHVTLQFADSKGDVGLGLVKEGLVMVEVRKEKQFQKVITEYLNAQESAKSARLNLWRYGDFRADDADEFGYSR

Results are given in words; binding and its absence hold for the method and conditions named. In cells and extracts the contact can be indirect. Binding calls can cover weak binding; strength is not graded here.

Take “SND1 (plasmid co-transfected in Kyse150 cells) (from UniProt Q7KZF4 1-910)”: the binding result is recorded as “binds”.
